Measurements as given in article PMC8092316.
Results are given in words; binding and its absence hold for the method and conditions named. Binding seen in cells or lysates may run through a third protein. Here binding means that the protein was enriched with, or labelled near, the bait; the list need not be complete.

Target: mCherry-tagged Pas2 (Cryptococcus neoformans)
Assay: affinity purification with mass spectrometry; CoIP/MS with mCherry-tagged Pas2 as bait from C. neoformans protein extracts; cells under normoxia and hypoxia

B1: Cir1 (protein, UniProt Q09RL2 1-952)
chain: MPETNTSAPQDNEHESSIGSRFENRFGPGWRVGFDNSNERGGVDEDAAEDSPPPRRESPGTSDKEIEAAEIETPNVERDELESDYGESVQQQGHVDSEEELDQKELIRRAAARRRHQNKKEEQGSDGQPSAKKRKPLAPANASSLPSPPPSTTAPASAHPPAGTCPGDGRCNGAGGKAGCEGCPTYNNSIAAGLVSASGSHAASHPPNVSEGIERPVRSIYDREHRPYGFDRFMENSMGNGLAPRALPRQSPDQRQAHPSPVTTQPLMHPTSEKGTPTRFSPDSDAETAAAPSGNGSGLAATPVGMSCRNCGTSTTPLWRRDEEGRPQCNACGLYHKLHGVPRPVAMKKTVIKRRKRVPAVGSTSTGGRGTNAELPSPASAPASVPTVTAPPPHVAPPLDDKAHRASPPFGHRAPQPHSEHRINRPLGPEAYGLAGRYGKPSTPAGMNLPGSTSTSSLNIPERKKPWWQEGREGRDREKEEKDREAREREGLAAEALLTMAPAANGGPSPEKRVEKSSGAGPVPASQSRRASIDVDMADNEPRGTKRKNEEEPRDVRDPRAPMSLGLHGMDRDRNRSKDRTFSHSPLISTDPRSGQPSNPHLPGSRLGQPPTSSASPYPATTQQGAPNRYSIYGPTTRDPLAGSSPYSFNASRYSNLHMRRDHSPSVGGAASKPNVLSPPRRASPAPTPDPRERFYPSPSAASAGSAPGSANAAMAGYGHYSMSRRELQEHREQLKEGKRWLEAMMAKTDKMLHMVENKMALTVEMSSGPSVVGPGDRPSLSSNASPVPPPAAIHKMSDDWEFEERERQRQKEIQRLEQEREMDRVEREKRERERERPGSYEDVRGRPRDKSEAERNRDILLASRRVSAVSPNPATRAATASRESASSSNGSAPQQGEKSHGGTNGVSGGKREGSQWDGEPVMSGVPLPRREQQNGIGSRLGRGLWSFDVRS
binding: binds
